Assay results taken from publication PMC9943673.
Results are given in words; binding and its absence hold for the method and conditions named. Binding seen in cells or lysates may run through a third protein. A yes stands for co-enrichment or nearness to the bait. Other partners may have been found. Where a sequence is shown, tags or fusion partners need not be part of it.

Protein sequences, listed by entry. Tags and fused reporters are not part of them.
UniProt P54274: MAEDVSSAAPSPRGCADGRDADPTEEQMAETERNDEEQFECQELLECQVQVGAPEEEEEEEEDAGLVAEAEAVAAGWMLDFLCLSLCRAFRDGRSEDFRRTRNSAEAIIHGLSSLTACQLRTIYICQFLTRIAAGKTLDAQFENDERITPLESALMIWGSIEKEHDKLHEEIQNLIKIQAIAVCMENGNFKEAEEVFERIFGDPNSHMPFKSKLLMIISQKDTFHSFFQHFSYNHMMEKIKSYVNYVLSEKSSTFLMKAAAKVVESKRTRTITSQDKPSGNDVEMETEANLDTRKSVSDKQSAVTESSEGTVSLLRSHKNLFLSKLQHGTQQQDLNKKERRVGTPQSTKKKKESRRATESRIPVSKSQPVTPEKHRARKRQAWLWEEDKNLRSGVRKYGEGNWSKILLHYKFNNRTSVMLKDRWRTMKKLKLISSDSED

T1: PPM1D-D314A-BioID2 fusion protein (human) (UniProt O15297)
T1 sequence: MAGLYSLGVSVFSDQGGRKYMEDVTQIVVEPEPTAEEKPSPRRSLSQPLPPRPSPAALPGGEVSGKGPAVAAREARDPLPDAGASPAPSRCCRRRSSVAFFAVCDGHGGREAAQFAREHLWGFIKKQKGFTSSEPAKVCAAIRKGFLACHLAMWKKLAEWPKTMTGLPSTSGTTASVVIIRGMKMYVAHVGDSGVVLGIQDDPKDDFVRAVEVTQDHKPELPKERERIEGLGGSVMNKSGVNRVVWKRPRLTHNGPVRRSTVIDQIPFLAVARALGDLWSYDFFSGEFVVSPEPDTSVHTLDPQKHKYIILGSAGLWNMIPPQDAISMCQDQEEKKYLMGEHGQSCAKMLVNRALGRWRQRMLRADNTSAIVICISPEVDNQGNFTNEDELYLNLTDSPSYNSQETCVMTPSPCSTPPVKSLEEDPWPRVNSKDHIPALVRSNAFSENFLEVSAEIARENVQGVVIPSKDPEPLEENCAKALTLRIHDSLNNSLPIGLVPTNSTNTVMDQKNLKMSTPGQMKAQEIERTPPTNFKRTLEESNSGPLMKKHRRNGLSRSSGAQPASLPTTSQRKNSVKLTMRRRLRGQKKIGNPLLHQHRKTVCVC

B1: TRF2-interacting telomeric protein 1 (RAP1), endogenous in HEK293 (protein, UniProt Q9NYB0 1-399)
chain: MAEAMDLGKDPNGPTHSSTLFVRDDGSSMSFYVRPSPAKRRLSTLILHGGGTVCRVQEPGAVLLAQPGEALAEASGDFISTQYILDCVERNERLELEAYRLGPASAADTGSEAKPGALAEGAAEPEPQRHAGRIAFTDADDVAILTYVKENARSPSSVTGNALWKAMEKSSLTQHSWQSLKDRYLKHLRGQEHKYLLGDAPVSPSSQKLKRKAEEDPEAADSGEPQNKRTPDLPEEEYVKEEIQENEEAVKKMLVEATREFEEVVVDESPPDFEIHITMCDDDPPTPEEDSETQPDEEEEEEEEKVSQPEVGAAIKIIRQLMEKFNLDLSTVTQAFLKNSGELEATSAFLASGQRADGYPIWSRQDDIDLQKDDEDTREALVKKFGAQNVARRIEFRKK
B2: telomere-associated exonuclease DCLRE1B, endogenous in HEK293 (enzyme, UniProt Q9H816 1-532)
chain: MNGVLIPHTPIAVDFWSLRRAGTARLFFLSHMHSDHTVGLSSTWARPLYCSPITAHLLHRHLQVSKQWIQALEVGESHVLPLDEIGQETMTVTLLDANHCPGSVMFLFEGYFGTILYTGDFRYTPSMLKEPALTLGKQIHTLYLDNTNCNPALVLPSRQEAAHQIVQLIRKHPQHNIKIGLYSLGKESLLEQLALEFQTWVVLSPRRLELVQLLGLADVFTVEEKAGRIHAVDHMEICHSNMLRWNQTHPTIAILPTSRKIHSSHPDIHVIPYSDHSSYSELRAFVAALKPCQVVPIVSRRPCGGFQDSLSPRISVPLIPDSVQQYMSSSSRKPSLLWLLERRLKRPRTQGVVFESPEESADQSQADRDSKKAKKEKLSPWPADLEKQPSHHPLRIKKQLFPDLYSKEWNKAVPFCESQKRVTMLTAPLGFSVHLRSTDEEFISQKTREEIGLGSPLVPMGDDDGGPEATGNQSAWMGHGSPLSHSSKGTPLLATEFRGLALKYLLTPVNFFQAGYSSRRFDQQVEKYHKPC

Molecular target: T1, PPM1D-D314A-BioID2 fusion protein (human)
Test: proximity labelling; BioID2 in stable HEK293 cells, 50 uM biotin for 5 h, denaturing lysis, streptavidin beads, mass spectrometry, against empty BioID2 (n = 3, FDR < 0.05)

binding | Molecule
binds | telomeric repeat-binding factor 2 (TRF2), endogenous in HEK293 (from UniProt Q15554-3 1-542)
binds | telomeric repeat-binding factor 1 (TRF1), endogenous in HEK293 (from UniProt P54274 1-439)
binds | B1
binds | B2
